Data taken from paper doi:10.1101/2021.08.02.454737.
Substitutions are numbered along the chain they refer to. Results are given in words; binding and its absence hold for the method and conditions named. Binding seen in cells or lysates may run through a third protein. Some binding calls cover weakened binding; strength is not graded here. Where a sequence is shown, tags or fusion partners need not be part of it.

Chains of the proteins cited; added tags and fusions are not shown.
UniProt Q9HAU5: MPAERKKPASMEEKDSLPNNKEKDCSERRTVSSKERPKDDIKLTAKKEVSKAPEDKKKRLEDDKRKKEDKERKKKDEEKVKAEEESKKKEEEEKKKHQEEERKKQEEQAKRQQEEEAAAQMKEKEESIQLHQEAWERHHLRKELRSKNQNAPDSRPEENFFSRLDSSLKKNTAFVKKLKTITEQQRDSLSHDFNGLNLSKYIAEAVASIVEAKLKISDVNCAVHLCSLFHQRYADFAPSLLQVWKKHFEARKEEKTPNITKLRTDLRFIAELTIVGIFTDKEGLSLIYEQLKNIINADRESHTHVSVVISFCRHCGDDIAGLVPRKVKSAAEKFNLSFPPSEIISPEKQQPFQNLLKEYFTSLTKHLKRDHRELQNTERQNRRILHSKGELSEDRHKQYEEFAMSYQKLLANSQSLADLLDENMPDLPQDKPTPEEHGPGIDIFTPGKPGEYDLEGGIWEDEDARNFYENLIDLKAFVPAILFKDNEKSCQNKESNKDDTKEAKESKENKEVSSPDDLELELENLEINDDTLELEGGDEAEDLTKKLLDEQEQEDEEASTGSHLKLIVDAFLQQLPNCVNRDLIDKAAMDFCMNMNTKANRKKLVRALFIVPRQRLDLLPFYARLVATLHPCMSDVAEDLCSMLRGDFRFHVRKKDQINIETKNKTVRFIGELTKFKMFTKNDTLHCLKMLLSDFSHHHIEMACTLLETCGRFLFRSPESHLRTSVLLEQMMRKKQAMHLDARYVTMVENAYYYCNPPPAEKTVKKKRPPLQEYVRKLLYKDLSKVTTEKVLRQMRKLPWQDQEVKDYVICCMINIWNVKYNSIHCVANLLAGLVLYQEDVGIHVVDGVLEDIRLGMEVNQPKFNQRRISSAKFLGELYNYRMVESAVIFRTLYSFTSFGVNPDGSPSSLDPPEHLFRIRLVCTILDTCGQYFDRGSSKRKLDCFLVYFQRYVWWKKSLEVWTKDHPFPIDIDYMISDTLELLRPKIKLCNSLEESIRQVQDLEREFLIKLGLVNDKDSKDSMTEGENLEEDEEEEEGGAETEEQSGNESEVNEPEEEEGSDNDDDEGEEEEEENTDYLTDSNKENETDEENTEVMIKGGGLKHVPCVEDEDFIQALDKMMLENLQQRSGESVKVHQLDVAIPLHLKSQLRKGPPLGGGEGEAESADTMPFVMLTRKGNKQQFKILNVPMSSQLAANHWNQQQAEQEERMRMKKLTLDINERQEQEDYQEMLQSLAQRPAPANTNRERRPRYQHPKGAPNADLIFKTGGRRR
UniProt P04406: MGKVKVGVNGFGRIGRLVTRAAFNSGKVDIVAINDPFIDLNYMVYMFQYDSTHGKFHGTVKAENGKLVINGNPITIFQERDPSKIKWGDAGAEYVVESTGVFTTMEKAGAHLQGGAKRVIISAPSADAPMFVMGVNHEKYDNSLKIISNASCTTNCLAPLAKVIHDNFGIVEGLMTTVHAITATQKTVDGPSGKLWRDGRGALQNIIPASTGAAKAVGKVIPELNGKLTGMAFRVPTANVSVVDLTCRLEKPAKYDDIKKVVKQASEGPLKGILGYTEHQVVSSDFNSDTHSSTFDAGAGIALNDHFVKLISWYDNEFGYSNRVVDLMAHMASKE
UniProt Q86US8: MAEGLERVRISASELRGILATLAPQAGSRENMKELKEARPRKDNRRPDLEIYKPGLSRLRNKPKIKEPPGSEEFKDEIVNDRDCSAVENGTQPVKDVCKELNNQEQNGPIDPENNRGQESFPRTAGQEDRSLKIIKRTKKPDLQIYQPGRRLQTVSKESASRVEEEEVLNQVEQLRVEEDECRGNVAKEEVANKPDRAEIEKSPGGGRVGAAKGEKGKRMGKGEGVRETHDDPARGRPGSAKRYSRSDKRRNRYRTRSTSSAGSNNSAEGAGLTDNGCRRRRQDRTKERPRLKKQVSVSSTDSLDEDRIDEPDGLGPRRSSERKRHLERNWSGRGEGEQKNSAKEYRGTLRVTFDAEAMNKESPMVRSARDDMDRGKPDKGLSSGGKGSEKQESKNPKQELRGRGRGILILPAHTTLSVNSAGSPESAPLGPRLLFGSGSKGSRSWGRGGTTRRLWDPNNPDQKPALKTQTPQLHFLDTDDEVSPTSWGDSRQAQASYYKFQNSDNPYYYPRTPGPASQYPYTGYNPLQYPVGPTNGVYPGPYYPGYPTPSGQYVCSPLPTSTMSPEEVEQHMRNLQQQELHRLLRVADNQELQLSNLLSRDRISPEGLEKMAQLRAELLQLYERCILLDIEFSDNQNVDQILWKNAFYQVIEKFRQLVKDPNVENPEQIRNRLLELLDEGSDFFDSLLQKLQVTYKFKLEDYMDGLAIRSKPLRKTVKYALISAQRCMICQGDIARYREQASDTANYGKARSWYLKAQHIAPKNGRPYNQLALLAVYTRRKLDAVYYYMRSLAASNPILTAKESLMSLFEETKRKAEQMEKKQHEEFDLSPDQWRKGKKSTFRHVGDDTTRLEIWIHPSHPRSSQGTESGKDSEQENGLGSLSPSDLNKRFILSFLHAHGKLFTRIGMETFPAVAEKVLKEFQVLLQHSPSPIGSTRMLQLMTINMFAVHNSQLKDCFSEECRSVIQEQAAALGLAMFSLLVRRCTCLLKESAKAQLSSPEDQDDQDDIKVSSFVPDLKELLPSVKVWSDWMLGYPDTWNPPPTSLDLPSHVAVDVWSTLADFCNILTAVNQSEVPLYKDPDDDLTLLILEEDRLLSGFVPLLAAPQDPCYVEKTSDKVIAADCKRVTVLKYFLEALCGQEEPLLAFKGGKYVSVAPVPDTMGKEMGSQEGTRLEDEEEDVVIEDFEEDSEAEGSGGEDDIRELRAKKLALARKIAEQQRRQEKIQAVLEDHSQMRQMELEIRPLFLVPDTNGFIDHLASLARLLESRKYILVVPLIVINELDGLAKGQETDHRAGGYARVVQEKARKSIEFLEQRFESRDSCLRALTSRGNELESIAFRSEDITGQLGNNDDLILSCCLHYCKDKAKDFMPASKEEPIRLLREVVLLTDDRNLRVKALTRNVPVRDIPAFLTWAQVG

What was measured:
Assay in all cases: co-IP
[1] = target: T1, UPF1-GFP VLLF mutant (V93A, L100A, L103A, F105A) (human) (UniProt Q92900)
T1 sequence: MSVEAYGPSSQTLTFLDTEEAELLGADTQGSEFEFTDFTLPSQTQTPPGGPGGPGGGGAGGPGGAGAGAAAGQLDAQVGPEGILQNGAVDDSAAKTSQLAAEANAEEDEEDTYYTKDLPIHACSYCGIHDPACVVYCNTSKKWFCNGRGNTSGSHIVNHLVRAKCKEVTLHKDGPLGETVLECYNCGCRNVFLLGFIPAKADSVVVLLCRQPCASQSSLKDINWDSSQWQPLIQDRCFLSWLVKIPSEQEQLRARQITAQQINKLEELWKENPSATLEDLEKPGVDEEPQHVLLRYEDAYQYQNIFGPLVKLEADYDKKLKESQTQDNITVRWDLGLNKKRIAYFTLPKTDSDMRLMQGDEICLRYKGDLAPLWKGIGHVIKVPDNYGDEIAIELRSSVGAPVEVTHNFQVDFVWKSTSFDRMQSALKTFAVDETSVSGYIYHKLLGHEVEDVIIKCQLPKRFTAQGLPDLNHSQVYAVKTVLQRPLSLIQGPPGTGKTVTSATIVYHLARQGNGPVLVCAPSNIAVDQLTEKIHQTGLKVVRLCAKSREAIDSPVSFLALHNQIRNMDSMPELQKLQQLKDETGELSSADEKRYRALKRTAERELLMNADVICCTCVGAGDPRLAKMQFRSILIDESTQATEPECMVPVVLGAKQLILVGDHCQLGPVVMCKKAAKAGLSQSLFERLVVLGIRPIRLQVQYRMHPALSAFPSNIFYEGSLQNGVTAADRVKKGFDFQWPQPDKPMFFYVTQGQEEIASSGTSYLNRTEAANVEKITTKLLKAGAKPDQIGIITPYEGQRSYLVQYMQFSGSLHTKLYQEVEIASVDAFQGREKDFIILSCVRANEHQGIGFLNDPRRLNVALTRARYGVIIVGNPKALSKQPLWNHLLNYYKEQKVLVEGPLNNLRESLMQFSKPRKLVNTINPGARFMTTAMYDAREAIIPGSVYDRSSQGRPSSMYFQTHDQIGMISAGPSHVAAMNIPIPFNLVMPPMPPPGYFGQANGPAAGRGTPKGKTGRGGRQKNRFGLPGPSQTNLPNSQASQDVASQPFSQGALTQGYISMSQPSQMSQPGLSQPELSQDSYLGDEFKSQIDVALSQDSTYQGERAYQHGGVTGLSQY

[2] = target: T2, UPF1-GFP LF mutant (L103A, F105A) (human) (UniProt Q92900)
T2 sequence: T1 sequence with A93V, A100L

[3] = target: T3, UPF1-GFP wild type (UPF1 isoform 2 fused to enhanced GFP) (human) (UniProt Q92900)
T3 sequence: T1 sequence with A93V, A100L, A103L, A105F

| binding [1] | binding [2] | binding [3] | Substance |
| --- | --- | --- | --- |
| binds | binds | binds | UPF2 (from UniProt Q9HAU5 1-1272) |
| no binding | no binding | no binding | GAPDH (from UniProt P04406 1-335) |
| binds | binds | binds | SMG6 (from UniProt Q86US8 1-1419) |
